No constants are given. Whether binding was seen depends on the method and setting. Binding seen in cells or lysates may run through a third protein. Some binding calls cover weakened binding; strength is not graded here.

Amino acid sequences for entries named in this document (tags omitted).
UniProt Q13216: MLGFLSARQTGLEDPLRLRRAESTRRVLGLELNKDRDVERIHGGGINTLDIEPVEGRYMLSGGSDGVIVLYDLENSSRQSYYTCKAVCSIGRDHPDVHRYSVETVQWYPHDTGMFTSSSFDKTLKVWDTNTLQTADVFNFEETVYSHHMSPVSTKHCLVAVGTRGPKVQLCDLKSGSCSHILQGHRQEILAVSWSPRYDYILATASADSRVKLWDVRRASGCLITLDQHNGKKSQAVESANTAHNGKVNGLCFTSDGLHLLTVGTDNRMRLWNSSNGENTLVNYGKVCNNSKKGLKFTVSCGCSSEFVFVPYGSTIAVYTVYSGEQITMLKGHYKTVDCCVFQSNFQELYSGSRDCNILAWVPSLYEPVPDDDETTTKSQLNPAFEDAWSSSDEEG
UniProt Q92905: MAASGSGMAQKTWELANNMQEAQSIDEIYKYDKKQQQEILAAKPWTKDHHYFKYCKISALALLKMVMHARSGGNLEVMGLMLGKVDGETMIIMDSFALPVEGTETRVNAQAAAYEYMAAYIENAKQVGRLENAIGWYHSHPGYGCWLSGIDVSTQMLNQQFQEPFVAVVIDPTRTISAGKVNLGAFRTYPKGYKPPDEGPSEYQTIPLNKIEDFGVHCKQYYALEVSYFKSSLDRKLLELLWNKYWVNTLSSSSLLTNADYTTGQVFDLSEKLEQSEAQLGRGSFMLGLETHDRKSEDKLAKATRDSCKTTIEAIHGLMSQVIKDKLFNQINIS
UniProt Q13619: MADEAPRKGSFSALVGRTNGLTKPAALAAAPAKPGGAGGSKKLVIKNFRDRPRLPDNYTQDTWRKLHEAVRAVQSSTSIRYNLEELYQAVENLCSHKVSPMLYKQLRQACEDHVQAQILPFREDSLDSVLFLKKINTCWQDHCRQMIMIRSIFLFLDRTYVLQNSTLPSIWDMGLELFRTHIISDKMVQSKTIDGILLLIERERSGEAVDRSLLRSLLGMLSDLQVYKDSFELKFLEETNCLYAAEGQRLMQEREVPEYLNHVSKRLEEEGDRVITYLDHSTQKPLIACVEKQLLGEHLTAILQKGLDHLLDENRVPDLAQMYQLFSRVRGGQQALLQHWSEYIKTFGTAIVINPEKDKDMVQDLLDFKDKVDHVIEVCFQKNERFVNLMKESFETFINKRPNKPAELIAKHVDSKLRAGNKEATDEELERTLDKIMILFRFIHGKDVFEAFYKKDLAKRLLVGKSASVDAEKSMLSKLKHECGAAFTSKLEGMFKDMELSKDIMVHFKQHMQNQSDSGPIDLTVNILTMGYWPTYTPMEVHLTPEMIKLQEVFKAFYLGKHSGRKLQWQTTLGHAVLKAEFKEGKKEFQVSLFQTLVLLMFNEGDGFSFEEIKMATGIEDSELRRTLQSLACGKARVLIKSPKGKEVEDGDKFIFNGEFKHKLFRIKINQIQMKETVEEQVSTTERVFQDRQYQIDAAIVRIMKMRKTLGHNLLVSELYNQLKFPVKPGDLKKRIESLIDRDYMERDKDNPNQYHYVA

The record followed here is publication PMC11286758.

One assay has as its target CSA-GFP (human) (UniProt Q13216). Briefly: co-IP; GFP-Trap beads on the GFP or mClover tag, 90 min at 4 °C; lysis in 30 mM HEPES pH 7.5, 130 mM NaCl, 1 mM MgCl2, 0.5% Triton X-100, sonication, Benzonase; immunoblot; cells mock-treated or UV irradiated, WT or DDA1KO.
The target in assay [1] is CSA-mClover (human (endogenous in HCT116)) (UniProt Q13216). The description is as above.

Take CSN5 (from UniProt Q92905 1-334): the binding result (with CSA-GFP (human); in assay [1]) was “binds” in each case.
For CUL4A (from UniProt Q13619 1-759), the binding entry (with CSA-GFP (human); in assay [1]) was “binds” each time.
